# Reference: PubChem BioAssay AID493014 (National Center for Advancing Translational Sciences (NCATS), 2011)
# Out of some 340,000 compounds screened, about 170 (0.05%) were called active. Inconclusive means that the source gave no clear call. Such entries were picked first, then a sample of the others. Calls come from the whole dose curve; as a rule, active = well fitted inhibition curve with a large enough effect in the signal ratio, with a control signal flat (not every such curve was filed as active); inconclusive = small, poorly fitted or top-dose-only effect, or effect the other way, or a change in a side signal; inactive = flat fitted curve, though single readings scatter; the % refers to the signal ratio. Potencies of inconclusive entries are doubtful fits and often do not repeat.
# Test: qHTS Assay to Find Inhibitors of Chronic Active B-Cell Receptor Signaling;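 for activity change, negative = inhibition: plate controls were basal doxycycline-induced cells for no effect and cells given 10 µM MG132 for full effect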
# Settings: ABC-DLBCL IkBa-CBG/CBR reporter, luminescence ratio (green luciferase fused to IkBa over red control in TMD8 lymphoma cells), 4 h; activity change, negative = inhibition: at 46.1 µM (top of the series)
# Outline: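 Compounds up to 46 uM were incubated four hours with TMD8 cells whose green CBG68 luciferase is fused to IkappaBalpha; red CBR luminescence normalised the signal, and concentration-effect curves were fitted to fusion, red and ratio data.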
# Potency is the fitted concentration of half-maximal effect.
SMILES,"activity change, negative = inhibition",Potency
COc1ccccc1NC(=O)c1ccccc1N(Cc1ccccc1)S(C)(=O)=O,inactive,–
CCOC(=O)C1=C(C)Nc2ncnn2C1c1ccccc1F (centres undefined),inconclusive: -5.3%,–
Cc1ccc2c(COC(=O)C3=COCCO3)cc(=O)oc2c1,inconclusive: 0.0511%,–
Cc1cc(C(=O)COC(=O)c2n[nH]c3ccccc23)c(C)n1CC1CCCO1 (centres undefined),inconclusive: -15.7%,–
Fc1ccc(CCNC(=S)Nc2ccc(F)cc2)cc1,inconclusive: -25.7%,–
N#Cc1c(N)sc2c1CCN(C(=O)OCc1ccccc1)C2,inconclusive: 6.14%,–
CCCCn1c(SCC(=O)Nc2ccccc2C(F)(F)F)nc2ccsc2c1=O,inactive,–
CCCN1Cc2cccc(C(=O)NCc3ccccc3OC)c2C1=O,–,"inconclusive: 0.231 µM [rising, full curve]"
CCOC(=O)C(=Cc1ccc(F)cc1)C(=O)OCC,inconclusive: -10%,–
COc1ccc(CNC(=O)c2nnn(-c3cccc(C(F)(F)F)c3)c2N)cc1,–,"inconclusive: 5.62 µM [falling, partial curve]"
Cc1ccc(N2CC(=O)N(CC(=O)O)C2=O)cc1,inconclusive: 0.0427%,–
CCOC(=O)N1CCN(c2c(N3CCN(C(=O)OCC)CC3)c(=O)c2=O)CC1,inconclusive: 7.76%,–
O=[N+]([O-])c1cccc2c(S(=O)(=O)N3CCCCC3)cccc12,inconclusive: 2.95%,–
Cc1nc(C)n(CC(O)COc2ccc(C(=O)c3ccccc3)cc2)n1 (centres undefined),inconclusive: -5.55%,–
CC(=O)Cc1nsc(NC(=O)c2ccc(Cl)cc2Cl)n1,inconclusive: 10.4%,–
COc1ccc(OC)c(CCNC(=O)CC2Oc3ccccc3NC2=O)c1 (centres undefined),–,"inconclusive: 18.4 µM [falling, partial curve]"
Cc1cc(C)c2c(N)c(C(=O)c3ccc(Br)cc3)oc2n1,inactive,–
CN1c2ccsc2C(O)=C(C(=S)Nc2ccccc2)S1(=O)=O,–,"inconclusive: 18.4 µM [falling, partial curve]"
Cc1ccc(N2C(=O)Nc3ccccc3S2(=O)=O)cc1Cl,inactive,–
CCN(Cc1cnn(C)c1)Cc1nc(C(c2ccccc2)c2ccccc2)no1,–,"inconclusive: 35.5 µM [falling, single point]"
CCN1c2ccccc2NC2C1C(C(C)=O)C(=O)N2c1ccc(Cl)cc1 (centres undefined),inconclusive: -1.54%,–

SMILES,"activity change, negative = inhibition",Potency
CCOC(=O)N1CCC(NC(=O)c2cc(COc3ccccc3SC)on2)CC1,inconclusive: -18.2%,–
Cc1cc(C(=O)N2CCC(Cc3ccccc3)CC2)no1,inconclusive: 3.04%,–
O=c1[nH]nc(Cc2ccccc2)c2ccccc12,–,"inconclusive: 25.9 µM [falling, partial curve, poor fit]"
Cc1ccc(N2CC(NC(=O)c3ccco3)CC2=O)cc1 (centres undefined),inconclusive: -23%,–
O=C1OCCN/C1=C\C(=O)c1ccc(Cl)cc1,inconclusive: 2.56%,–
CCOc1ccc(NC(=O)CSC2=Nc3ccccc3C3=NC(CC(=O)NCc4ccccc4OC)C(=O)N23)cc1 (centres undefined),inactive,–
O=C(Cc1ccsc1)NNC(=O)c1cccc(Cl)c1,inconclusive: -4.6%,–
C/C(=N\Nc1nc(N2CCOCC2)nc(N2CCOCC2)n1)c1cccs1,inactive,–
COc1cc(/C=C/C(=O)OCC(=O)Nc2ccc3c(c2)OCCO3)ccc1OCC#N,inconclusive: 1.71%,–
O=C(NC1CCCCC1)c1cc(C(=O)c2ccccc2Br)c[nH]1,inconclusive: -17.9%,–
O=C(O)c1cc(-c2ccc3c(c2)OCCO3)n[nH]1,inactive,–
COc1ccc(-c2noc(CCC(=O)NCc3cccnc3)n2)cc1,inactive,–
O=C(NNC(=O)C1C2CCC(C2)C1C(=O)O)c1cccc(Cl)c1 (centres undefined),–,"inconclusive: 12.6 µM [falling, partial curve]"
Cc1ccc(NC(=O)CN(C)S(=O)(=O)c2ccc3[nH]c(=O)oc3c2)c(C)c1,inconclusive: -4.32%,–
Cc1cccc(OCC(=O)NNC(=O)C2CCN(c3ncnc4sc(C)c(C)c34)CC2)c1,inconclusive: -5.59%,–
Fc1ccc(Br)cc1C1C=C(c2ccc(Br)cc2)Nc2ncnn21 (centres undefined),–,"inconclusive: 13 µM [falling, partial curve]"
CC(CN1C(C)CCCC1C)OC(=O)c1ccccc1Br (centres undefined),inconclusive: -7.58%,–
COc1ccc(Cl)cc1N(C(=O)Nc1cccc(Cl)c1)C1=NCC(C)S1 (centres undefined),inconclusive: 14.4%,–
O=P1(O)C=C(c2ccccc2)NC(c2ccccc2)=C1,inconclusive: -16.8%,–
O=C(CN1CCC(NC(=O)c2ccccc2F)CC1)Nc1ccc2c(c1)OCO2,inactive,–
CN(C(=O)c1ccc(NC(=O)Cc2ccc(NC(=O)C3CCN(C(=O)C4CCCC4)CC3)cc2)cc1)C1CC1,inactive,–

# Shown as tab-separated lines: entries from further up
SMILES	activity change, negative = inhibition	Potency
CN1c2ccsc2C(O)=C(C(=S)Nc2ccccc2)S1(=O)=O	–	inconclusive: 18.4 µM [falling, partial curve]
Cc1ccc(N2C(=O)Nc3ccccc3S2(=O)=O)cc1Cl	inactive	–
CCN(Cc1cnn(C)c1)Cc1nc(C(c2ccccc2)c2ccccc2)no1	–	inconclusive: 35.5 µM [falling, single point]
CCN1c2ccccc2NC2C1C(C(C)=O)C(=O)N2c1ccc(Cl)cc1 (centres undefined)	inconclusive: -1.54%	–
CCOC(=O)N1CCC(NC(=O)c2cc(COc3ccccc3SC)on2)CC1	inconclusive: -18.2%	–
Cc1cc(C(=O)N2CCC(Cc3ccccc3)CC2)no1	inconclusive: 3.04%	–
O=c1[nH]nc(Cc2ccccc2)c2ccccc12	–	inconclusive: 25.9 µM [falling, partial curve, poor fit]
Cc1ccc(N2CC(NC(=O)c3ccco3)CC2=O)cc1 (centres undefined)	inconclusive: -23%	–
O=C1OCCN/C1=C\C(=O)c1ccc(Cl)cc1	inconclusive: 2.56%	–
CCOc1ccc(NC(=O)CSC2=Nc3ccccc3C3=NC(CC(=O)NCc4ccccc4OC)C(=O)N23)cc1 (centres undefined)	inactive	–
O=C(Cc1ccsc1)NNC(=O)c1cccc(Cl)c1	inconclusive: -4.6%	–
C/C(=N\Nc1nc(N2CCOCC2)nc(N2CCOCC2)n1)c1cccs1	inactive	–
COc1cc(/C=C/C(=O)OCC(=O)Nc2ccc3c(c2)OCCO3)ccc1OCC#N	inconclusive: 1.71%	–
O=C(NC1CCCCC1)c1cc(C(=O)c2ccccc2Br)c[nH]1	inconclusive: -17.9%	–
O=C(O)c1cc(-c2ccc3c(c2)OCCO3)n[nH]1	inactive	–
COc1ccc(-c2noc(CCC(=O)NCc3cccnc3)n2)cc1	inactive	–
O=C(NNC(=O)C1C2CCC(C2)C1C(=O)O)c1cccc(Cl)c1 (centres undefined)	–	inconclusive: 12.6 µM [falling, partial curve]
Cc1ccc(NC(=O)CN(C)S(=O)(=O)c2ccc3[nH]c(=O)oc3c2)c(C)c1	inconclusive: -4.32%	–
Cc1cccc(OCC(=O)NNC(=O)C2CCN(c3ncnc4sc(C)c(C)c34)CC2)c1	inconclusive: -5.59%	–
Fc1ccc(Br)cc1C1C=C(c2ccc(Br)cc2)Nc2ncnn21 (centres undefined)	–	inconclusive: 13 µM [falling, partial curve]
CC(CN1C(C)CCCC1C)OC(=O)c1ccccc1Br (centres undefined)	inconclusive: -7.58%	–
COc1ccc(Cl)cc1N(C(=O)Nc1cccc(Cl)c1)C1=NCC(C)S1 (centres undefined)	inconclusive: 14.4%	–
O=P1(O)C=C(c2ccccc2)NC(c2ccccc2)=C1	inconclusive: -16.8%	–

# Next records:

SMILES,"activity change, negative = inhibition",Potency
CC(=C\c1ccccc1)/C=C1/SC(=O)N(CCCC(=O)Nc2ccc(C(=O)O)cc2)C1=O,–,"inconclusive: 11.2 µM [falling, partial curve]"
CNC(=O)/C=C1\NC(C)(C)Cc2ccccc21,inconclusive: 13.7%,–
Cc1ccc(C2N(c3ccc(Cl)cc3)C(=O)N3CCCN23)cc1 (centres undefined),inconclusive: 17.2%,–
CCn1c(SCC(=O)Nc2cccc(OC)c2)nc2c(c1=O)SCC2,inactive,–
O=C(NCc1ccco1)[C@@H]1CCCN1C(=O)c1cccs1,inconclusive: 17.5%,–
O=C(NNC(=S)Nc1ccc(F)c(Cl)c1)c1ccccc1Br,inconclusive: -20.2%,–
O=C(COc1ccc(/C=N/NC(=O)c2ccc(O)cc2)cc1)Nc1ccc([N+](=O)[O-])cc1,–,"inconclusive: 29.1 µM [rising, single point]"
CC(OC(=O)c1cccs1)C(=O)NCc1cccs1 (centres undefined),inconclusive: 3.08%,–
Cn1c(-c2csc(-c3cccc(C(F)(F)F)c3)n2)n[nH]c1=S,inactive,–
CN(C)/C=C1\C(=O)N(C)N=C1C(F)(F)F,inconclusive: -0.381%,–
O=c1c([N+](=O)[O-])c(NCCN2CCCCCC2)c2ccccc2n1-c1ccccc1,inconclusive: 5.24%,–
CN(C)C(=O)c1ccc(NC(=O)COc2ccc([N+](=O)[O-])cc2)cc1,inconclusive: 1.6%,–
Cc1ccc(-c2nc(CN(C)C)cc(CN(C)C)c2O)cc1,–,"inconclusive: 17.8 µM [falling, partial curve, poor fit]"
O=C(CC1Oc2ccccc2NC1=O)NCCCN1CCCC1=O (centres undefined),–,"inconclusive: 16.4 µM [falling, single point]"
Cc1ccc(NC(=S)NCc2ccccn2)cc1,–,"inconclusive: 35.5 µM [falling, single point]"
CC(C)(C)Nc1nc(C(N)=O)nc(N2CCOCC2)n1,–,"inconclusive: 20.6 µM [falling, single point]"
CCOc1ncccc1C(=O)OCC(=O)NC(=O)c1ccccc1,inactive,–
COCCCN(C(C)=O)c1nc(-c2ccccc2)cs1,inconclusive: -6.32%,–
Clc1ccccc1C(c1nnnn1Cc1ccco1)N1CCN(Cc2ccco2)CC1 (centres undefined),inconclusive: -0.749%,–
COc1ccc(NC(=O)c2oc3ccccc3c2NC(=O)c2ccco2)cc1,inconclusive: 4.93%,–
CCCCn1c(N)c(N(CC)C(=O)c2ccccc2C)c(=O)[nH]c1=O,inconclusive: 15.3%,–

SMILES,"activity change, negative = inhibition",Potency
Cc1nc2cccc(C(=O)NCc3ccccc3)c2o1,–,"inconclusive: 22.4 µM [falling, partial curve]"
O=C(CCl)Nc1ccc(Oc2cnc3ccccc3n2)cc1,–,"inconclusive: 25.1 µM [falling, single point]"
Cc1cc(C)c(NC(=O)C2CCCCN2C)c(C)c1 (centres undefined),inconclusive: -1.94%,–
CCC1CCCCN1C(=S)NC(=O)c1ccco1 (centres undefined),–,"inconclusive: 23.1 µM [falling, single point]"
Clc1ccc(-c2nnc(-c3ccccc3)nc2N2CCSCC2)cc1,–,"inconclusive: 6.51 µM [rising, single point]"
Cc1c(C(=O)Nc2ccncc2)oc2ccccc12,inactive,–
Cc1ccc(SCCC(=O)N/N=C/c2cccnc2)cc1,inactive,–
Cc1ccccc1N=C1NC(=O)/C(=C/c2cccnc2)S1,–,"inconclusive: 7.08 µM [falling, full curve]"
COc1ccccc1CN(Cc1nc2ccccc2c(=O)[nH]1)C(=O)Nc1cccc(C)c1,–,"inconclusive: 18.4 µM [falling, single point]"
Cc1cccc(/C=C2\Sc3ccc(C(=O)N4CCOCC4)cc3N(C)C2=O)c1,inconclusive: 1.24%,–
CCOc1ccc(CNC(=O)C(C)n2ccc3cc(S(=O)(=O)N4CCCC4)ccc32)cc1 (centres undefined),inactive,–
COC(=O)CN(c1nc(C)cc(OC)n1)S(=O)(=O)c1ccccc1,inconclusive: 4.04%,–
O=C(CCc1ccccc1)Nc1ccc2c(c1)OCO2,inconclusive: 3.56%,–
Cc1ccc(/C=N/NC(=O)CN2C(=O)CSc3ccccc32)o1,–,"inconclusive: 10 µM [falling, partial curve, poor fit]"
O=[N+]([O-])c1cccnc1Oc1cccnc1,inconclusive: -13.8%,–
Cn1c(=O)c2cc(S(=O)(=O)NCCC(=O)NCCc3ccc(Cl)cc3)ccc2n(C)c1=O,inconclusive: -19.1%,–
CC(C)[C@H](NC(=O)c1ccccc1)C(=O)OCC(=O)Nc1ncc(Cl)cc1Cl,inconclusive: 2.03%,–
COc1ccc2c(=O)c3c(=O)n(CCc4ccccc4)c(C(C)C)nc3oc2c1,inconclusive: -15.6%,–
CC(Oc1ccc(Cl)cc1Cl)c1nc(-c2ccc(NC(=O)c3ccncc3)cc2)no1 (centres undefined),inactive,–
CCCCOC(=O)c1ccc(NC(=O)COC(=O)C2CSC3(C)CCC(=O)N23)cc1 (centres undefined),inconclusive: 22.8%,–
O=C(O)c1ccccc1NC(=O)c1ccccc1Nc1ccccc1,inconclusive: -14.9%,–
